From publication PMC5471220 come the findings set out here.

No constants are given. Whether binding was seen depends on the method and setting. Binding seen in cells or lysates may run through a third protein. Binding can be weak; no strength is given.

The target in the test is T1, Hap5-Protein A (Candida glabrata) (UniProt Q6FM95).
T1 sequence: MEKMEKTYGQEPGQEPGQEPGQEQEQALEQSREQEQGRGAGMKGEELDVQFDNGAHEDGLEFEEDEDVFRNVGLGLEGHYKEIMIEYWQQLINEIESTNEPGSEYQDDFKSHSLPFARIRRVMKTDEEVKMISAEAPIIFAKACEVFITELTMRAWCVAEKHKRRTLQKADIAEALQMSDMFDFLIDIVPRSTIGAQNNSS
The experiment in a line: co-IP; Hap5-Protein A as bait on Dynabeads PanMouse IgG, from 100 mL of C. glabrata culture at OD = 0.8 in CSM-His media; Yap5-myc (prey) detected by western blot with anti-myc antibody; performed twice. A general note: In western blotting, separated proteins are transferred to a membrane and probed.

Regarding Yap5-myc (wild type) (Candida glabrata), the binding entry was “binds”.
